In PMC11441496:
No constants are given. Whether binding was seen depends on the method and setting. Binding calls can cover weak binding; strength is not graded here. For part of these data: In cells and extracts the contact can be indirect.

Columns and labels:
[1] = molecular target: E. coli FimC A106C, His-tagged (E. coli) (UniProt P31697); assay: cross-linking; engineered disulfide bond between FimC A106C-his and FimG S138C (FimCGdb); SI Appendix, Fig. S3
[2] = molecular target: K. pneumoniae TOP52 FimH D54N (Klebsiella pneumoniae); assay: in vitro donor strand exchange, product purified by cation exchange; FimCGdb and FimChisH mixed at a 3:1 molar ratio in 20 mM MES (pH 5.6) at 30 °C for 16 h; FimCGdbH purified on a cation (S) exchange column; FimH entered the reaction bound to FimChis; both purified
[3] = molecular target: K. pneumoniae TOP52 FimH T74P (Klebsiella pneumoniae); assay: as above

Measured: binding

B1: E. coli UTI89 FimG S138C (protein, UniProt P08190 24-167)
chain: ADVTITVNGKVVAKPCTVSTTNATVDLGDLYSFSLMSAGAASAWHDVALELTNCPVGTSRVTASFSGAADSTGYYKNQGTAQNIQLELQDDSGNTLNTGATKTVQVDDSSQSAHFPLQVRALTVNGGATQGTIQAVICITYTYS
binds: all assays above
